{"sequences": {"note": "Protein sequences, listed by entry. Tags and fused reporters are not part of them.", "UniProt P13612, whole entry, looked up": "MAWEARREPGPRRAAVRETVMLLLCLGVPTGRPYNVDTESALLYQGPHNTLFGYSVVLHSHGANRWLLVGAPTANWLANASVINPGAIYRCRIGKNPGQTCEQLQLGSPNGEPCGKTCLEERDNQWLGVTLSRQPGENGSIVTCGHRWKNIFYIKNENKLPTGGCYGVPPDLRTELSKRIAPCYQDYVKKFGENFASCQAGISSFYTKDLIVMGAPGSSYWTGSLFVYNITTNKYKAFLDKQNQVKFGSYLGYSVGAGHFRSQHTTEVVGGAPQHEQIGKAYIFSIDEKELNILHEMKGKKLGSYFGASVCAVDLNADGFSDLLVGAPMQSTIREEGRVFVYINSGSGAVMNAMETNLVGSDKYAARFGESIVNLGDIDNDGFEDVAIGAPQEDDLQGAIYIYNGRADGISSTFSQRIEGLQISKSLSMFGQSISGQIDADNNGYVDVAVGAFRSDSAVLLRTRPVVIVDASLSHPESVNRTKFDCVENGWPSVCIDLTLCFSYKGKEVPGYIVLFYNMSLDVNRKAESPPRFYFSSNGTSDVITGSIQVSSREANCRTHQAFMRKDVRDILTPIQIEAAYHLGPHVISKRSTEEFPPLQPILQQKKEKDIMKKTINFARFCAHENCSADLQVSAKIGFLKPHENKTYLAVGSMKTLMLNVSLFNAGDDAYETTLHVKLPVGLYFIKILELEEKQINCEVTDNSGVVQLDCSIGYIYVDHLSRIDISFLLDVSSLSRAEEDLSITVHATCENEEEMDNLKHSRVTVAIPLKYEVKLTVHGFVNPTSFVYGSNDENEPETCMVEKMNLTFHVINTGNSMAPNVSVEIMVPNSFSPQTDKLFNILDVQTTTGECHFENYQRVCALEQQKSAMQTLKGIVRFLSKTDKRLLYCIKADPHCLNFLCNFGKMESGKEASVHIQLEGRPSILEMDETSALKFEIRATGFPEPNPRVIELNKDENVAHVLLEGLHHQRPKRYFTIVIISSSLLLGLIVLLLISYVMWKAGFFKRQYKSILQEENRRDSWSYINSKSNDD"}, "source": "PubChem BioAssay AID528", "about": "(NMMLSC, 2006)", "note": "Out of some 24,000 compounds screened, fewer than 10 were called active. Inconclusive means that the source gave no clear call. Such entries were picked first, then a sample of the others.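 Rule for the calls: active = fluorescent ligand binding to cells raised by more than 40% of the manganese-induced maximum; inconclusive = compound's own fluorescence above 85% of the ligand control signal; inactive = the rest.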", "data": [{"target": "Integrin alpha-4 (Homo sapiens) (UniProt P13612)", "assay": "enhancers of LDV-FITC binding to VLA-4 integrin, primary screen, Jurkat cells, flow cytometry (AID 528);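 for activation: 0% = ligand binding without compound and 100% = manganese-stimulated maximal binding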", "settings": "stronger effect = higher value, screened at 10 µM (by protocol)", "values": [{"compound": "COc1ccccc1CNC(=O)C1CCN(Cc2nc(-c3cccc(Cl)c3)oc2C)CC1", "activation": "inconclusive"}, {"compound": "COc1ccc(NC(=O)Cn2nnc(C(N)=O)c2N)c(OC)c1", "activation": "inconclusive"}, {"compound": "Cc1ccc(CNC(=O)CS(=O)Cc2nc(-c3cccs3)oc2C)cc1", "note": "(stereo unspecified)", "activation": "inconclusive"}, {"compound": "COC(=O)c1cc2sccc2n1CC(=O)N1CCCc2ccccc21", "activation": "inconclusive"}, {"compound": "Cc1ccccc1-n1c(=O)cc(N2CCC3(CC2)OCCO3)[nH]c1=O", "activation": "inactive: 3%"}, {"compound": "O=C(CN1CC(c2ccccc2)CC1=O)Nc1ccc2c(c1)OCO2", "note": "(stereo unspecified)", "activation": "inconclusive"}, {"compound": "Cc1nn(C)c(C)c1S(=O)(=O)NCc1cccs1", "activation": "inconclusive"}, {"compound": "O=C(CC(=O)N1CCN(c2ccccn2)CC1)Nc1ccc2nc3n(c(=O)c2c1)CCCCC3", "activation": "inactive: 0%"}, {"compound": "CCOC(=O)Cn1c(=O)oc2cc(S(=O)(=O)NCCCc3ccccc3)ccc21", "activation": "inconclusive"}, {"compound": "COc1ccc2[nH]c3c(N4CC(C)OC(C)C4)ncnc3c2c1", "note": "(stereo unspecified)", "activation": "inactive: 8%"}, {"compound": "CCCCOc1ccc(-c2nnn(CC(=O)NCc3ccco3)n2)cc1", "activation": "inactive: 3.5%"}, {"compound": "Cc1onc(-c2ccccc2Cl)c1C(=O)N1CCN(c2cccc(Cl)c2)CC1", "activation": "inconclusive"}, {"compound": "O=C(NC1CCCCCCC1)c1ccc(CNc2c(N3CCOCC3)c(=O)c2=O)cc1", "activation": "inactive: -4%"}, {"compound": "O=C(Nc1ccc(SC(F)F)cc1)c1ccc2nccnc2c1", "activation": "inconclusive"}, {"compound": "O=C(CCN1C(=O)C2C3C=CC(C3)C2C1=O)Nc1nccs1", "note": "(stereo unspecified)", "activation": "inconclusive"}, {"compound": "O=C(CCNC(=O)Cn1cnc2ccccc2c1=O)NCCC1=CCCCC1", "activation": "inconclusive"}, {"compound": "CCOC(=O)c1c(NC(=O)C(F)(OC)C(F)(F)F)sc2c1CCN(C)C2", "note": "(stereo unspecified)", "activation": "inconclusive"}, {"compound": "COc1cccc(C2=CC(c3cccc(OC)c3OC)n3nnnc3N2)c1", "note": "(stereo unspecified)", "activation": "inconclusive"}, {"compound": "Cc1cccn2c(=O)c3cc(C(=O)Nc4ccc(N(C)C)cc4)n(C)c3nc12", "activation": "inconclusive"}, {"compound": "COc1ccccc1CNC(=O)CN(c1ccc(C)cc1)S(=O)(=O)c1c(C)n[nH]c1C", "activation": "inconclusive"}, {"compound": "CCCCCc1nc2c(=O)n(C)c3ccccc3c2o1", "activation": "inconclusive"}]}]}
